# Only a part is listed here, and it is no random draw.
# By UniProt entry, the sequences of proteins in these tests, tags left out. Where a name states a change or a piece, a line headed by the entry shows the natural chain unless it says otherwise.
# UniProt O75439: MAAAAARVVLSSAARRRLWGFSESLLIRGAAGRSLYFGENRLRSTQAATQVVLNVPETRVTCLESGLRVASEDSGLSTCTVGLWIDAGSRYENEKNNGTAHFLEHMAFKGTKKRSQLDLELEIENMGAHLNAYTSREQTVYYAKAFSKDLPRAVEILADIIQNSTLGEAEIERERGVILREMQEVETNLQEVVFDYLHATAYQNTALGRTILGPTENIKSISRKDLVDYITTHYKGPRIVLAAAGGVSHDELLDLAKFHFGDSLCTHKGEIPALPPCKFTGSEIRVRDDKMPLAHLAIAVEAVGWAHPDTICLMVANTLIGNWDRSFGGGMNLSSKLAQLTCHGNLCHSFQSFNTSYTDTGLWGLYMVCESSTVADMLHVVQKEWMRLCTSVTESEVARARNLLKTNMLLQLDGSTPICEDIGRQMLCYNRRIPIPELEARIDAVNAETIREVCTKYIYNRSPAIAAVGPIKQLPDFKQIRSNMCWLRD
# UniProt O43353, whole entry, looked up: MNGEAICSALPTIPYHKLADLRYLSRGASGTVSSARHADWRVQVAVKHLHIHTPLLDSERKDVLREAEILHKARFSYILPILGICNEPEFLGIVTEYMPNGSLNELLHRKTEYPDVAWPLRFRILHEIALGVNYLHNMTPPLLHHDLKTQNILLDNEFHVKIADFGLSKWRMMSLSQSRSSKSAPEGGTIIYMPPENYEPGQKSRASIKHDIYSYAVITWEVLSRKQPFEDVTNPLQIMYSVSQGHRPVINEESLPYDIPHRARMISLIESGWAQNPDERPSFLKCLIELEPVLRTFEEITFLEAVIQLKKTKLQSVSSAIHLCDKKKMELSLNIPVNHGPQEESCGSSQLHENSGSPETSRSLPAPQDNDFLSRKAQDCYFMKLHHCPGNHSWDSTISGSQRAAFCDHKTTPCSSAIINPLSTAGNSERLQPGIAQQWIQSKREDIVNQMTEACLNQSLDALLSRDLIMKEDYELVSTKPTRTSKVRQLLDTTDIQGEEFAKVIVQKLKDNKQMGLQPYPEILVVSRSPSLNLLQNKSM
# UniProt O60343: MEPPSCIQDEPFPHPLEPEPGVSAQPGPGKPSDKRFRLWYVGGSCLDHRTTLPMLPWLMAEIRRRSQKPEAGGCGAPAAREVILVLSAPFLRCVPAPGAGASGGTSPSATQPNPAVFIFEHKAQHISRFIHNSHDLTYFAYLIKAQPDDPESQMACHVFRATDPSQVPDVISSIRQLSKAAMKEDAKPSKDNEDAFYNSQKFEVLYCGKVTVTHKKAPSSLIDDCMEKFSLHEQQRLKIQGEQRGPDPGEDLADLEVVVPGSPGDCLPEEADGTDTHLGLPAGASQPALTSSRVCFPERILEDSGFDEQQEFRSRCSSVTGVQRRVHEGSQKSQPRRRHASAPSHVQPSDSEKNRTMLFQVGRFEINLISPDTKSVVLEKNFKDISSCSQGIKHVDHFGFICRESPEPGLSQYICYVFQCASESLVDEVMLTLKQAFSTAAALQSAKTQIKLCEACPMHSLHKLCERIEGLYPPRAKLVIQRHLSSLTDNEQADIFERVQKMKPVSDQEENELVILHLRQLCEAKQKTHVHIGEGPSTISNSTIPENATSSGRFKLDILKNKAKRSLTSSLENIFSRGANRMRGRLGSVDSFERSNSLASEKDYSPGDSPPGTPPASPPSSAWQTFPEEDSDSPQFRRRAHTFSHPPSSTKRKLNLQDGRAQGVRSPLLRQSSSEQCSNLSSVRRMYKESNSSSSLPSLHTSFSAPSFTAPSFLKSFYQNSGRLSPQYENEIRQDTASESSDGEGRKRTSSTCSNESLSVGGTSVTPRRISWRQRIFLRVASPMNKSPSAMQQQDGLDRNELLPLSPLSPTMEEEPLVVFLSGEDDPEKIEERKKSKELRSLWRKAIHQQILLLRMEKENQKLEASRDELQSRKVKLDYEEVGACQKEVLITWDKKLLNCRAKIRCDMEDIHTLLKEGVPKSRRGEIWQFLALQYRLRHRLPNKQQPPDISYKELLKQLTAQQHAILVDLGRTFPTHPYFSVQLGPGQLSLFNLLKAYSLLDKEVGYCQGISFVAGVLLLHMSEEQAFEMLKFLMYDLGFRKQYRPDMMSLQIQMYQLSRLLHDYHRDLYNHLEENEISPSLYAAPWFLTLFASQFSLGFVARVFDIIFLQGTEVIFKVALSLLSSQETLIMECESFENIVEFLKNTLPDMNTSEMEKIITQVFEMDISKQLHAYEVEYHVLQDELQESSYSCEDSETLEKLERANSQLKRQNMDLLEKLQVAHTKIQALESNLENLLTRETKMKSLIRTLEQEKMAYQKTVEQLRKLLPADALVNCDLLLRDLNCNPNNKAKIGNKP
# UniProt O75643, whole entry, looked up: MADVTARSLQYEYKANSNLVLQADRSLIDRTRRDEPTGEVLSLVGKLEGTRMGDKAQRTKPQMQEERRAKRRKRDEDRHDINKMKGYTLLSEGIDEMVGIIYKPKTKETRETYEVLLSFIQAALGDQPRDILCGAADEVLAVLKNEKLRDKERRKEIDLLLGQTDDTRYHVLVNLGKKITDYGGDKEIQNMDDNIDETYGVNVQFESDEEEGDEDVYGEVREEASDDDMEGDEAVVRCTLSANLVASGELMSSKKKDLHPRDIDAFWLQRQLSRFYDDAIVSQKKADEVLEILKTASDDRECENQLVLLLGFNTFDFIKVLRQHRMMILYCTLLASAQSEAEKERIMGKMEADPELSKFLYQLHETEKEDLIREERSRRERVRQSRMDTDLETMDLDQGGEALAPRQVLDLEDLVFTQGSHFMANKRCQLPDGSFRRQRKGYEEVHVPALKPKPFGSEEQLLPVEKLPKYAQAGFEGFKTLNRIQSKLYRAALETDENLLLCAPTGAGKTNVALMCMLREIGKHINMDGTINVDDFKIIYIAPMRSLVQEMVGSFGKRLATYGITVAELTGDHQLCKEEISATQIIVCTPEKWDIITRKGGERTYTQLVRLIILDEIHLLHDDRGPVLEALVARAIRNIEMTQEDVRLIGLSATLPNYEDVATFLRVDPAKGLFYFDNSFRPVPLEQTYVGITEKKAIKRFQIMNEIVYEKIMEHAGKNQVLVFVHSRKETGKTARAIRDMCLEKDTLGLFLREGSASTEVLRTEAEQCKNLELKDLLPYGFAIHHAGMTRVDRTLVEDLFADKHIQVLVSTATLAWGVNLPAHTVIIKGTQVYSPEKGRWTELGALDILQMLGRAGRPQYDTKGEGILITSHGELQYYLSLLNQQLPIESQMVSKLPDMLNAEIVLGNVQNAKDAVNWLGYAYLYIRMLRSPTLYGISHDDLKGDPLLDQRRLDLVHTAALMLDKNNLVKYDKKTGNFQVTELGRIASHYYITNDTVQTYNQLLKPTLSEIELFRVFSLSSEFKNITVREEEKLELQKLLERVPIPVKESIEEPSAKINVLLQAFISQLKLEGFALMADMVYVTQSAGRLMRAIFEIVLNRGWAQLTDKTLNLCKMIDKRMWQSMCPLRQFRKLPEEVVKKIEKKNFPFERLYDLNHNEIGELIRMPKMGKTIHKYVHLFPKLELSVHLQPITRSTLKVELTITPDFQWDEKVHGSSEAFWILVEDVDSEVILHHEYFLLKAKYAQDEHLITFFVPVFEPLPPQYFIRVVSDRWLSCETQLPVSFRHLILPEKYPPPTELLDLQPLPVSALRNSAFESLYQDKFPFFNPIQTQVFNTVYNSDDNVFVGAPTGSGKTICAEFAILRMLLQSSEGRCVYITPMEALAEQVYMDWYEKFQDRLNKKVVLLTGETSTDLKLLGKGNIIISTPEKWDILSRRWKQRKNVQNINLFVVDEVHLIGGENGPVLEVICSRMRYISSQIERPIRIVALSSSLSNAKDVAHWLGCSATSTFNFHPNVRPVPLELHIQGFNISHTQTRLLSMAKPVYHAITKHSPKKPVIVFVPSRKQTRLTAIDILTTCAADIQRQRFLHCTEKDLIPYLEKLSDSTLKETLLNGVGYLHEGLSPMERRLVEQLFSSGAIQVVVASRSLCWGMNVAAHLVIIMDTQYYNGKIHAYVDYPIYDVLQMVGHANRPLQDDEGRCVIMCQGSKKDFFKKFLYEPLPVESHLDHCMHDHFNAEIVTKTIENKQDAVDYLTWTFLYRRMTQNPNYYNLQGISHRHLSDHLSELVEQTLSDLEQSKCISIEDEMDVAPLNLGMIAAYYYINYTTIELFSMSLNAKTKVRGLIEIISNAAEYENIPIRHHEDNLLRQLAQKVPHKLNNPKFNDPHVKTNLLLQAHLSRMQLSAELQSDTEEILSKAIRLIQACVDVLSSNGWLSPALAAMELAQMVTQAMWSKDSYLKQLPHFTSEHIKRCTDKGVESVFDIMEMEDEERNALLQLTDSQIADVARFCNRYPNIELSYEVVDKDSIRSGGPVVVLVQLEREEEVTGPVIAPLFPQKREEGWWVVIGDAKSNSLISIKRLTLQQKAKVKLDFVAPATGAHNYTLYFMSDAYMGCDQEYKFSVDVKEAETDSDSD
# UniProt O43390: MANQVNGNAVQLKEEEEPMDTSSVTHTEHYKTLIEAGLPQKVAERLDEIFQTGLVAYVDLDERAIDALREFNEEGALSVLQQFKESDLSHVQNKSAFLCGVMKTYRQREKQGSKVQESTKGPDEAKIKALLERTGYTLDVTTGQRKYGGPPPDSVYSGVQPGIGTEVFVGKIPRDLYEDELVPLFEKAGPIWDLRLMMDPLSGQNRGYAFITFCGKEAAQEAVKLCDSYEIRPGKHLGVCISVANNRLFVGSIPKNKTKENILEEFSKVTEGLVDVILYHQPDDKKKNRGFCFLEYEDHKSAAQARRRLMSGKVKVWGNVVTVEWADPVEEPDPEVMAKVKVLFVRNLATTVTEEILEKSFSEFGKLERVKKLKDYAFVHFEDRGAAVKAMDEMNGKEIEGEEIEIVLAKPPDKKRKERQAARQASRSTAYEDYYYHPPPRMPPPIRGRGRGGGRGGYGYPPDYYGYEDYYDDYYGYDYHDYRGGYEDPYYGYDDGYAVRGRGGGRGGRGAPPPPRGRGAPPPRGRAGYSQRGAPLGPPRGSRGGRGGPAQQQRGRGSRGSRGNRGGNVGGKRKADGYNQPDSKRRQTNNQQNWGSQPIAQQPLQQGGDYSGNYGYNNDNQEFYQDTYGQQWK
# UniProt O60547: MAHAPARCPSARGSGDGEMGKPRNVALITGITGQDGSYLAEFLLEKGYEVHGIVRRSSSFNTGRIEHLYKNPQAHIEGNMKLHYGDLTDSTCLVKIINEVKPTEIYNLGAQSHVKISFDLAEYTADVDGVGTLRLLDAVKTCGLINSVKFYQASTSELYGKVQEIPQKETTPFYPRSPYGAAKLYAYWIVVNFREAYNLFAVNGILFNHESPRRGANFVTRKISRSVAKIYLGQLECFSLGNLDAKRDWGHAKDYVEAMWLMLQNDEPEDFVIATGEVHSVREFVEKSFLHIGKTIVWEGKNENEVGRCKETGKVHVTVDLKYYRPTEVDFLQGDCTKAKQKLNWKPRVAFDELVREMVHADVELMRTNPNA
# UniProt O60568: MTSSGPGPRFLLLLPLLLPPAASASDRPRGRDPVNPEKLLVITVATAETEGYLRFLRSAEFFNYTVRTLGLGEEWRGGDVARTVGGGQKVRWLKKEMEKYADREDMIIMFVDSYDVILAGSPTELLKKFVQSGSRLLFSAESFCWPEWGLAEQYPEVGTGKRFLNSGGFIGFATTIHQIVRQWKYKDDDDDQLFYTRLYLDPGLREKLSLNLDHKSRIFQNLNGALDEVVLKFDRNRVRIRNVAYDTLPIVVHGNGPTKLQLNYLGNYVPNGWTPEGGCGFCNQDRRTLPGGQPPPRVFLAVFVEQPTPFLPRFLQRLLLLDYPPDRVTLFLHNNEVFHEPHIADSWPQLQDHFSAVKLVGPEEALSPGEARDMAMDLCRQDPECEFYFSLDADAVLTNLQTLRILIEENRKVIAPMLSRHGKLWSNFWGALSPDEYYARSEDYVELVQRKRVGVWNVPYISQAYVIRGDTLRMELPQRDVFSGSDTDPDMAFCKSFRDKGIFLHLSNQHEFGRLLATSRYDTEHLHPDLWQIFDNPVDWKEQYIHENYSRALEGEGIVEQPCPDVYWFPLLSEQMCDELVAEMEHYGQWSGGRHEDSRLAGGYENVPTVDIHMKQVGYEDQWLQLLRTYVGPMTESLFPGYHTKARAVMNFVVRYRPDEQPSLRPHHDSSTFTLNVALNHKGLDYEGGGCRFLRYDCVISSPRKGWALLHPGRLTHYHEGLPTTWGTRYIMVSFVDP
# UniProt O75414: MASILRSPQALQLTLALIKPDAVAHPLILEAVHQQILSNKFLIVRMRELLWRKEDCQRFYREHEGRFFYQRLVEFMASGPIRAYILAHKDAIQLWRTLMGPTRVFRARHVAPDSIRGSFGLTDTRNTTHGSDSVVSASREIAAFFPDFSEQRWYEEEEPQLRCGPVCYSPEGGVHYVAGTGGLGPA
# UniProt O75947: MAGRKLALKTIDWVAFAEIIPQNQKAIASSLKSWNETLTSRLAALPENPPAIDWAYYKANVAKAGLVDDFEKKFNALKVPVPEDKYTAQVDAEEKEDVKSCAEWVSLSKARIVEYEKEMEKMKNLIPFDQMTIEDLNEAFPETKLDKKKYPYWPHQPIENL
# Compound: COC(=O)C#Cc1ccccc1 [methyl 3-phenylpropiolate]
# Test: log2 ratio of iodoacetamide-alkyne labeling of the cysteine site, DMSO over compound (competition); higher = stronger covalent engagement of the cysteine by the compound, active = 1 or more
# Conditions: 500 µM; treatment time 1 h; system: HEK293T cell lysate
# Summary of the method: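 HEK293T lysate at 2 mg/mL was treated with vehicle or electrophile (500 µM) for 1 h at ambient temperature, then labelled with iodoacetamide alkyne (1 h), clicked to sCIP-TMT reagents, pooled, digested with trypsin overnight at 37 °C, enriched on streptavidin and eluted with acid. Peptides were analysed by Orbitrap Eclipse LC-MS/MS with FAIMS and quantified in FragPipe, using duplicate channels and three replicates, with cysteines quantified in only one replicate excluded. The log2 competition ratio for each cysteine is the mean control-channel reporter intensity divided by the mean compound-channel reporter intensity.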
row,Target,log2 ratio of iodoacetamide-alkyne labeling
1,PRKRA C106 (UniProt O75569),active: 1.07
2,SURF6 C189 (UniProt O75683),inactive: 0.356
3,PMPCB C419 (UniProt O75439),inactive: 0.112
4,NPM3 C41 (UniProt O75607),inactive: -0.118
5,RIPK2 C7 (UniProt O43353),inactive: 0.413
6,ANKRD17 C906 (UniProt O75179),inactive: 0.821
7,TBC1D4 C1286 (UniProt O60343),inactive: 0.473
8,GLRX3 C146 (UniProt O76003),inactive: 0.0419
9,BUB1 C339 (UniProt O43683),inactive: 0.245
10,TBC1D4 C45 (UniProt O60343),inactive: 0.216
11,FOXO3 C31 (UniProt O43524),inactive: 0.268
12,SURF6 C19 (UniProt O75683),inactive: 0.57
13,SNRNP200 C428 (UniProt O75643),inactive: 0.244
14,AKAP8 C631 (UniProt O43823),inactive: 0.0578
15,PPFIA2 C143 (UniProt O75334),inactive: -0.214
16,SART1 C560 (UniProt O43290),inactive: 0.329
17,KPNA6 C467 (UniProt O60684),inactive: 0.346
18,OBSL1 C581 (UniProt O75147),inactive: 0.461
19,UniProt O75153_C333,inactive: 0.499
20,HNRNPR C240 (UniProt O43390),inactive: 0.0333
21,WDHD1 C1008 (UniProt O75717),inactive: -0.0388
22,ZW10 C124 (UniProt O43264),inactive: 0.21
23,DIAPH2 C484 (UniProt O60879),inactive: 0.418
24,SNRNP200 C742 (UniProt O75643),inactive: 0.0852
25,SYNCRIP C289 (UniProt O60506),inactive: 0.0306

# Four entries from above, tab-delimited.
row	Target	log2 ratio of iodoacetamide-alkyne labeling
5	RIPK2 C7 (UniProt O43353)	inactive: 0.413
6	ANKRD17 C906 (UniProt O75179)	inactive: 0.821
7	TBC1D4 C1286 (UniProt O60343)	inactive: 0.473
8	GLRX3 C146 (UniProt O76003)	inactive: 0.0419

# Continuation:

row,Target,log2 ratio of iodoacetamide-alkyne labeling
1,SPAG9 C443 (UniProt O60271),inactive: 0.256
2,GMDS C237 (UniProt O60547),inactive: 0.176
3,SNRNP200 C1278 (UniProt O75643),inactive: 0.11
4,RNGTT C419 (UniProt O60942),inactive: 0.533
5,CSDE1 C680 (UniProt O75534),inactive: 0.119
6,SGTA C129 (UniProt O43765),inactive: 0.0696
7,RAD21 C585 (UniProt O60216),inactive: 0.0816
8,SNRNP200 C2011 (UniProt O75643),inactive: -0.137
9,PLOD3 C691 (UniProt O60568),inactive: 0.786
10,RNGTT C97 (UniProt O60942),inactive: 0.0788
11,DCTN3 C173 (UniProt O75935),inactive: -0.0748
12,UniProt O75582_C714,inactive: 0.127
13,SNRNP200 C1580 (UniProt O75643),inactive: 0.0193
14,RNF40 C69 (UniProt O75150),inactive: 0.0776
15,AKAP8 C351 (UniProt O43823),inactive: 0.201
16,EIF5B C635 (UniProt O60841),inactive: 0.158
17,ZW10 C588 (UniProt O43264),inactive: 0.467
18,NPM3 C70 (UniProt O75607),inactive: 0.58
19,HTATSF1 C462 (UniProt O43719),active: 1.14
20,RSL1D1 C96 (UniProt O76021),inactive: 0.846
21,UGDH C196 (UniProt O60701),inactive: -0.421
22,SF3B1 C1059 (UniProt O75533),inactive: 0.247
23,UniProt O75934_C106,inactive: 0.266
24,XRCC3 C86 (UniProt O43542),inactive: 0.448
25,UniProt O43865_C106,inactive: 0.504

row,Target,log2 ratio of iodoacetamide-alkyne labeling
1,IDH1 C379 (UniProt O75874),inactive: 0.0509
2,TIPRL C87 (UniProt O75663),active: 1.32
3,CLPX C538 (UniProt O76031),inactive: 0.378
4,UniProt O75582_C214,inactive: 0.398
5,KIF1B C1661 (UniProt O60333),inactive: 0.652
6,SF3B1 C1250 (UniProt O75533),inactive: 0.59
7,PAK3 C424 (UniProt O75914),inactive: 0.442
8,CUTA C96 (UniProt O60888),inactive: -0.0413
9,FLNB C2501 (UniProt O75369),inactive: 0.346
10,PAPSS1 C207 (UniProt O43252),inactive: 0.102
11,UniProt O60232_C56,inactive: 0.126
12,TBC1D4 C316 (UniProt O60343),inactive: 0.877
13,NME6 C163 (UniProt O75414),inactive: 0.347
14,UniProt O75934_C132,inactive: 0.477
15,ACTN4 C60 (UniProt O43707),inactive: 0.0407
16,TBC1D4 C1277 (UniProt O60343),inactive: 0.374
17,ASNA1 C205 (UniProt O43681),inactive: 0.126
18,URB1 C1163 (UniProt O60287),inactive: 0.114
19,NUP155 C917 (UniProt O75694),inactive: 0.304
20,UTP20 C1757 (UniProt O75691),inactive: -0.209
21,RNF40 C890 (UniProt O75150),inactive: 0.371
22,NME6 C167 (UniProt O75414),inactive: 0.347
23,UniProt O75947_C101,inactive: 0.98
24,TACC1 C174 (UniProt O75410),inactive: 0.521

# From the supplement of paper PMC11006884
